PubChem BioAssay AID1224828 | NIAID | 2016

Assay: 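Regulators linking TLR4 signalling to p65 nuclear translocation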 (primary screen)
System: mouse RAW264.7 G9 macrophage reporter cells (GFP-p65, Tnf promoter-mCherry)
Knock-down reagent: siRNA pool against mouse genes, 100 nM
Duration: 2 days siRNA transfection, then 40 min LPS before fixation
Conditions: LPS (Salmonella minnesota R595) at 10 ng/ml
Measured: 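Microscopy ratio of nuclear to perinuclear-ring GFP-p65 signal, scaled to the plate median; gene score is the average of two replicate robust z-scores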
Scale: p65 translocation robust z-score: higher = more nuclear NF-kappaB p65 after LPS than the plate median; nuclear/cytoplasmic p65 ratio: higher = more nuclear NF-kappaB p65
Call rule: 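Active if robust z is above 3.3 (negative regulators) or below -1.56, the Tlr4 control median (positive regulators); activity score 50 or more; control wells not called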
Meaning of the calls: active = hit (p65 shift raised or lowered); inactive = no clear change
The deposit covers about 17,000 reagents; shown is a random part of them. 762 of them (4.5%) count as active. 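Active calls include both raised and lowered p65 entry, mostly lowered; wells with fewer than 50 cells lack a z-score.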 Raw values vary from plate to plate and are shown uncorrected. Entries without a mark were called inactive.

no.	gene	p65 translocation robust z-score	nuclear/cytoplasmic p65 ratio, rep 1	nuclear/cytoplasmic p65 ratio, rep 2	low cell count flag
1	Rnf25	0.22	1.45	1.24	enough cells to score
2	Cyp4a14	-0.28	1.47	1.81	enough cells to score
3	D930030O05Rik	0.54	1.7	1.58	enough cells to score
4	Scamp5	-2.27 (active)	1.1	0.983	enough cells to score
5	Cdr1os		1.11	1.25	fewer than 50 cells per well; well left out of scoring
6	Ybx3	0.9	1.61	1.47	enough cells to score
7	Tmem86a	0.75	1.46	1.55	enough cells to score
8	Slc9a6		1.55	1.41	fewer than 50 cells per well; well left out of scoring
9	Igfbpl1	-1.83 (active)	1.34	1.14	enough cells to score
10	Ramp1	0.31	1.45	1.74	enough cells to score
11	Tigd4	1.04	1.56	1.68	enough cells to score
12	Dmc1		1.51	1.21	fewer than 50 cells per well; well left out of scoring
13	Uvrag	1.16	1.7	1.76	enough cells to score
14	Emilin3		1.46	1.31	fewer than 50 cells per well; well left out of scoring
15	Ro60	-0.1	1.44	1.19	enough cells to score
16	Elavl2	0.35	1.55	1.38	enough cells to score
17	Perm1		1.17	1.15	fewer than 50 cells per well; well left out of scoring
18	Sipa1	-1.36	1.31	1.4	enough cells to score
19	Slc6a17	-0.9	1.45	1.62	enough cells to score
20	Krtcap3	0.09	1.55	1.46	enough cells to score
21	Ms4a2	-0.59	1.36	1.58	enough cells to score
22	Alg14	1.55	1.61	1.62	enough cells to score
23	Glce	1.25	1.5	1.65	enough cells to score
24	Tmem242		1.31	1.25	fewer than 50 cells per well; well left out of scoring
25	Crlf2	-0.64	1.41	1.42	enough cells to score
26	Usp30	-0.21	1.46	1.49	enough cells to score
27	Trpc7	-0.02	1.51	1.5	enough cells to score
28	Rps6kb1	0.38	1.41	1.31	enough cells to score
29	Snx5	0.48	1.55	1.69	enough cells to score
30	Tpm1		1.46	1.54	fewer than 50 cells per well; well left out of scoring
31	Tbx22	0.17	1.56	1.52	enough cells to score
32	Tatdn1		1.59	1.25	fewer than 50 cells per well; well left out of scoring
33	Adora2b	1.36	1.69	1.79	enough cells to score
34	Rnf115	0.67	1.61	1.32	enough cells to score
35	Twf1	0.05	1.77	1.32	enough cells to score
36	Cimap1c	2.52	1.8	1.85	enough cells to score
37	Gata1	0.68	1.58	1.4	enough cells to score

Hits, of those listed so far:
gene	p65 translocation robust z-score	nuclear/cytoplasmic p65 ratio, rep 1	nuclear/cytoplasmic p65 ratio, rep 2	low cell count flag
Scamp5	-2.27 (active)	1.1	0.983	enough cells to score
Igfbpl1	-1.83 (active)	1.34	1.14	enough cells to score

The listing continues.
no.	gene	p65 translocation robust z-score	nuclear/cytoplasmic p65 ratio, rep 1	nuclear/cytoplasmic p65 ratio, rep 2	low cell count flag
38	Batf	-0.76	1.47	1.53	enough cells to score
39	Trim32	-0.14	1.56	1.42	enough cells to score
40	Proser2	-1.89 (active)	1.08	1.25	enough cells to score
41	Uevld	0.71	1.6	1.72	enough cells to score
42	Vmn1r203	-0.08	1.38	1.22	enough cells to score
43	Rcan2		1.3	1.2	fewer than 50 cells per well; well left out of scoring
44	Ren1	-0.53	1.46	1.43	enough cells to score
45	Ambp	-0.39	1.39	1.79	enough cells to score
46	Bglap3		1.18	1.5	fewer than 50 cells per well; well left out of scoring
47	Uba7	-0.04	1.53	1.48	enough cells to score
48	Mplkip	2.49	1.73	1.79	enough cells to score
49	Tuba1b	-0.93	1.39	1.36	enough cells to score
50	Dock5	0.08	1.42	1.42	enough cells to score
51	Tfam	1.09	1.6	1.75	enough cells to score
52	1600012H06Rik		1.12	1.18	fewer than 50 cells per well; well left out of scoring
53	Card6	0.11	1.62	1.64	enough cells to score
54	Acads	0.01	1.62	1.62	enough cells to score
55	Lncpint		0.951	1.16	fewer than 50 cells per well; well left out of scoring
56	Topors	-0.62	1.42	1.44	enough cells to score
57	Reg3b	-0.88	1.35	1.28	enough cells to score
58	Mapk1ip1l	0.28	1.33	1.56	enough cells to score
59	Fibin	0.29	1.58	1.49	enough cells to score
